Earlier results in patent US20150132440A1, “DIPEPTIDE AND TRIPEPTIDE COMPOSITIONS AND USES” (4141 HOLDINGS, LLC, priority 2013, published 2015).
At least one structure is not confirmed: it was looked up by name or label, or the drawing left a doubt.

How the values were obtained:
[1] = test system: L6 myotubes; conditions: L6 cells
[2] = test system: isolated skeletal muscles

## O=c1cc(N2CCOCC2)oc2c(-c3ccccc3)cccc12 [LY294002]
[1]
  stimulation of glucose uptake by Ile-Leu under inhibitor treatment: completely inhibited
[2]
  stimulation of glucose uptake by Ile-Leu under inhibitor treatment: completely inhibited
